This passage reports cell number change and AC50 results from PubChem BioAssay AID2685 (National Center for Advancing Translational Sciences (NCATS), 2010).

Some of the results follow. Shown are side measurements of this screen, not its main read-out; they come without a call. Most of these compounds were active or inconclusive in the main read-out, so they are no random draw. Words in brackets tell the shape of the fitted curve; partial curves, single points and poor fits give uncertain potencies.

As usually defined, the AC50 is the concentration giving half of the maximal activity seen. Read a high AC50 as weaker potency.

A short description of the assay: qHTS Assay for Lipid Storage Modulators in Drosophila S3 Cells.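 For cell number change: cells counted by Cell Tracker Red CMTPX staining in the red channel.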 The following applies: BODIPY lipid droplet fluorescence, 18-24 h; for cell number change: measured here: cell count max response, cells fed with added oleic acid. The procedure, abridged:
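Drosophila S3 cells got compounds at several concentrations plus oleic acid (400 uM solution). Laser-scanning cytometry with 488 nm excitation read lipid droplets at 500-530 nm and cells at 575-640 nm. Percent activity was relative to 20 uM Triacsin C.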
For orientation: Quantitative high-throughput screening tests each substance at several concentrations.

The mark [1] stands for this setting: measured here: lipid fluorescence (Fed channel) AC50, cells fed with added oleic acid.
[2] abbreviates: measured here: cell number channel AC50, cells fed with added oleic acid.

With `O=C(O)C1CCCCC1C(=O)NCCCN1CCCC1=O` (configuration not stated), the cell number change amounted to 29.3%. The AC50 under setting [1] is 3.26 µM [rising, full curve, poor fit].

Take `Fc1ccc(-c2[nH]ncc2CN2CCN(c3ccc(F)cc3)CC2)cc1`: the cell number change is -41.3%. The AC50 under setting [2] was 7.31 µM [falling, partial curve]. Besides, under setting [1], the concentration at half-maximal activity (AC50) was 8.2 µM [falling, partial curve, poor fit].

Consider `CCOC(=O)Nc1nnc(CCc2ccccc2)s1`, for which the cell number change was -30%. In addition, under setting [2], the AC50 is 29.1 µM [falling, partial curve, poor fit]. Under setting [1], the concentration at half-maximal activity (AC50) is 6.51 µM [falling, partial curve].

For the compound `COc1cc(/C=N/NC(=O)c2ccc(Cl)cc2)ccc1OCC(=O)N1CC(C)OC(C)C1` (configuration not stated), the cell number change amounted to 33%. In addition, the AC50 under setting [2] is 29.1 µM [rising, single point].

With `Cc1cccc(OCC(=O)Nc2ccc(C(=O)O)cc2NC(=O)COc2cccc(C)c2)c1`, the cell number change came out at 6.06%.

Consider `COc1ccc(OC)c(-c2nc(C(N)=O)c3[nH]c(=O)n(-c4ccc(F)cc4)c3n2)c1`, for which the cell number change was -2.58%.

`O=C(CNC(=O)[C@@H]1Cc2ccccc2CN1)NCc1ccco1`: the cell number change came to 22%.

Consider `Nc1ccc2oc(-c3cccc4ccccc34)nc2c1`, for which the cell number change is -4.37%. Besides, the AC50 under setting [1] is 29.1 µM [rising, single point].

For `Cc1ccc(NC(=O)Cn2cc(C(=O)C3CC3)c3ccccc32)c(C)c1`, the cell number change was 85.7%. Also, under setting [2], the AC50 was 29.1 µM [rising, single point]. In addition, the concentration at half-maximal activity (AC50) under setting [1] is 29.1 µM [rising, single point].

As to `COc1ccc(C2CC(c3cccs3)=NN2C(=O)CN2CCCCC2)cc1` (configuration not stated), the AC50 is 0.0259 µM [falling, full curve, poor fit] under setting [2] and 0.58 µM [falling, single point] under setting [1].

Regarding `O=C(COC(=O)CCc1ccccc1)Nc1ncc(Cl)cc1Cl`, the cell number change is -0.193%. In addition, the concentration at half-maximal activity (AC50) under setting [2] was 6.51 µM [falling, single point].

As to `CSc1ccc(OC2CCN(Cc3ccccc3)CC2)cc1`, the cell number change was -33.3%. For the same compound, under setting [2], the AC50 was 10.3 µM [falling, partial curve]. Besides, the concentration at half-maximal activity (AC50) under setting [1] is 6.51 µM [falling, partial curve].

With `CC1=C(C(=O)N2CCN(c3cc(C)ccc3C)CC2)C2(CCC(C)CC2)OC1=O` (configuration not stated), the cell number change was -4.78%. In addition, the concentration at half-maximal activity (AC50) under setting [1] is 14.6 µM [rising, single point].

Consider `O=C(Cc1cccs1)N/N=C/C(Cl)=C/c1ccccc1`, for which the cell number change was -37.6%. The half-maximal activity concentration (AC50) under setting [2] was 8.2 µM [falling, partial curve]. In addition, under setting [1], the AC50 is 6.51 µM [falling, partial curve].

On to `CCCCC(=O)Nc1cc(OC)c(NC(=O)C2CCCCC2)cc1OC`, for which the AC50 under setting [1] was 29.1 µM [rising, single point].

Turning to `CN(C)c1ccc(NC(=O)CSc2nnc(-c3ccco3)c(-c3ccco3)n2)cc1`, the cell number change turned out to be 1.39%. For the same compound, the concentration at half-maximal activity (AC50) under setting [2] was 4.61 µM [rising, single point].

Take `CCOC(=O)N1CCC(NC(=O)CSCc2nc(-c3sccc3C)oc2C)CC1`: the cell number change is -31.8%.

Regarding `Cc1cccc(C(C)Nc2ccc([N+](=O)[O-])cn2)c1` (configuration not stated), the cell number change amounted to 33.3%. Also, the AC50 under setting [2] is 0.00517 µM [rising, full curve, poor fit]. The AC50 under setting [1] is 3.66 µM [rising, full curve].

Regarding `Cc1cc(Cl)c(OCCCN(C)C)c(Br)c1`, the cell number change was -37.4%. Moreover, the AC50 under setting [2] is 0.651 µM [falling, partial curve, poor fit]. Moreover, the half-maximal activity concentration (AC50) under setting [1] is 0.366 µM [falling, full curve].

In the case of `COc1ccc(N2CCN(c3ncnc4c3[nH]c3ccccc34)CC2)cc1`, the cell number change was -36.9%. Also, under setting [2], the AC50 is 23.1 µM [falling, single point]. Further, the concentration at half-maximal activity (AC50) under setting [1] is 0.517 µM [rising, full curve].

As for `COc1ccc(-c2noc(CNC(=O)c3ccc4c(c3)OCO4)n2)cc1OC`, the cell number change was determined as 5.46%.

As to `CCOc1ccccc1N1CC(C(=O)Nc2ccc(C(=O)O)cc2)CC1=O` (configuration not stated), the cell number change is -27%.

For the compound `COc1ccc(CCNC(=O)c2ccc(C)s2)cc1OC`, the cell number change worked out at 6.99%.

For the compound `CC(C)CN1CCN(Cc2cccn2-c2ccccn2)CC1CCO` (configuration not stated), the cell number change was -29.3%. Moreover, the AC50 under setting [1] was 18.4 µM [rising, partial curve, poor fit].

For `COc1ccc(C2CC(c3ccccc3)=NN2C(=O)COC(=O)/C=C/c2ccc(O)c(OC)c2)cc1` (configuration not stated), the cell number change was -2.92%.

In the case of `CN(C)/C=C(\C#N)C(=O)Nc1ccc(O)cc1F`, the cell number change was -46.5%. The concentration at half-maximal activity (AC50) under setting [2] is 20.6 µM [falling, single point]. The AC50 under setting [1] was 18.4 µM [falling, partial curve].

In the case of `COC(=O)c1ccccc1NC(=O)N1CCN(c2ccc(F)cc2)CC1`, the cell number change amounted to 15.5%. In addition, under setting [1], the AC50 was 0.13 µM [rising, full curve, poor fit].

In the case of `Cc1cc(OCC(=O)N2CCN(c3ccccn3)CC2)cc(C)c1Br`, the cell number change was -15.3%. Besides, under setting [2], the concentration at half-maximal activity (AC50) is 0.82 µM [rising, partial curve]. The half-maximal activity concentration (AC50) under setting [1] was 0.58 µM [falling, single point].

Regarding `O=S(=O)(Nc1ccc2cn[nH]c2c1)c1ccc(C(F)(F)F)cc1`, the cell number change is -19.6%. Under setting [1], the AC50 was 14.6 µM [rising, single point].

With `O=C(Nc1cccc(F)c1)C1CCCN1S(=O)(=O)c1cccc2cccnc12` (configuration not stated), the cell number change is 31.4%. The AC50 under setting [2] is 16.4 µM [rising, single point]. Under setting [1], the half-maximal activity concentration (AC50) was 29.1 µM [rising, single point].

On to `CCOc1ccc([C@@H]2CC=C(C(=O)O)CN2S(=O)(=O)c2ccc(C)cc2)cc1`, for which the cell number change worked out at 5.28%. The half-maximal activity concentration (AC50) under setting [1] is 0.092 µM [rising, full curve, poor fit].

For the compound `CC(=O)c1cccc(NC(=O)CN2C=NS(=O)(=O)c3ccc(C)cc32)c1`, the cell number change was -42.6%. For the same compound, under setting [2], the concentration at half-maximal activity (AC50) was 23.1 µM [falling, partial curve, poor fit]. The AC50 under setting [1] is 29.1 µM [falling, single point].

`COc1ccc(C(O)P(=O)(OCC(C)C)OCC(C)C)c(OC)c1` (configuration not stated): the cell number change was -8.14%. The half-maximal activity concentration (AC50) under setting [1] was 0.116 µM [rising, full curve, poor fit].

For the compound `COCCOC(=O)C1=C(C)Nc2cc(=O)[nH]c(=O)n2C1c1cccc([N+](=O)[O-])c1` (configuration not stated), under setting [1], the AC50 is 10.3 µM [rising, single point].

As for `CC(C)(C)OC(=O)N1CCC(Cc2cc(-c3ccccc3)no2)(C(=O)O)CC1`, the cell number change was determined as 32%.

For the compound `NC(=O)c1cc2c(s1)-c1cc(Cl)ccc1SC2`, the cell number change worked out at 14.5%. Besides, under setting [2], the AC50 was 1.64 µM [rising, partial curve, poor fit]. Further, the AC50 under setting [1] was 25.9 µM [rising, single point].

On to `S=C(Nc1ccc(Cl)cc1Cl)N1CCN(c2ccccn2)CC1`, for which the cell number change was 55.8%. Further, the half-maximal activity concentration (AC50) under setting [2] is 29.1 µM [rising, single point]. Further, the AC50 under setting [1] was 29.1 µM [falling, single point].
